Measured data: PubChem BioAssay AID602196 (INSERM, 2012)
Assay: 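Genes whose knock-down alters cisplatin killing of lung cancer cells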. Cells: human A549 lung cancer cells. Reagents: siRNA pair against human genes. Duration: 48 h transfection before cisplatin; time from cisplatin to read-out not stated. Treatment: cisplatin at a dose killing half of control-siRNA cells; exact dose and duration not given. Measured: 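Shift in cisplatin death relative to control siRNA, from -50 (all cells die) to +50 (no cells die); siRNAs harmful on their own scored 0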. Direction: two-siRNA summed score (-2 to +2): higher = both siRNAs protect from cisplatin killing; -2 means both sensitise; mean protection from cisplatin (shift in death): higher = protection from cisplatin killing. Rule for the call: 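Each siRNA scores 0 if harmful alone by LDH or WST-1, otherwise +1 if it reduces and -1 if it increases cisplatin killing; a gene is active when both siRNAs agree (sum +2 or -2)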. Meaning of the calls: active = both siRNAs shift cisplatin killing the same way; inactive = no consistent shift, or siRNA harmful alone.
Shown is a random part of about 23,000 reagents tested. Over the whole deposit, 455 (2%) got an active call. 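Active includes both protection and sensitisation; some change values fall well beyond the stated -50 to +50 range.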 Further read-outs or replicates are left out here. Not given: the amount of reagent.

With GAB1, how do the results read?
two-siRNA summed score (-2 to +2): 0; mean protection from cisplatin (shift in death) (%): 11.9; Outcome: inactive

With RASSF5, what was measured?
two-siRNA summed score (-2 to +2): 1; mean protection from cisplatin (shift in death) (%): 12.6; Outcome: inactive

For NSF, how do the results read?
two-siRNA summed score (-2 to +2): 1; mean protection from cisplatin (shift in death) (%): 14.2; Outcome: inactive

What is on record for LOC440850?
two-siRNA summed score (-2 to +2): 0; mean protection from cisplatin (shift in death) (%): -2.7; Outcome: inactive

What is on record for CDC5L?
two-siRNA summed score (-2 to +2): 0; mean protection from cisplatin (shift in death) (%): -5.1; Outcome: inactive

What did the screen give for PRDX3?
two-siRNA summed score (-2 to +2): 1; mean protection from cisplatin (shift in death) (%): 14.4; Outcome: inactive

For SMARCAD1, what was measured?
two-siRNA summed score (-2 to +2): 0; mean protection from cisplatin (shift in death) (%): -4.9; Outcome: inactive

With SIGLEC10, what does the deposit list?
two-siRNA summed score (-2 to +2): 0; mean protection from cisplatin (shift in death) (%): -6.1; Outcome: inactive

For LCMT2, how do the results read?
two-siRNA summed score (-2 to +2): 0; mean protection from cisplatin (shift in death) (%): -9.8; Outcome: inactive

How did the screen score CFAP418?
two-siRNA summed score (-2 to +2): 0; mean protection from cisplatin (shift in death) (%): 2.1; Outcome: inactive

How did the screen score RBM6?
two-siRNA summed score (-2 to +2): 1; mean protection from cisplatin (shift in death) (%): 13.2; Outcome: inactive

For KCNA3, how do the results read?
two-siRNA summed score (-2 to +2): 0; mean protection from cisplatin (shift in death) (%): -2.6; Outcome: inactive

2 successive records from above:
CDC5L → two-siRNA summed score (-2 to +2) = 0; mean protection from cisplatin (shift in death) (%) = -5.1; Outcome = inactive
PRDX3 → two-siRNA summed score (-2 to +2) = 1; mean protection from cisplatin (shift in death) (%) = 14.4; Outcome = inactive
